Results published in PubChem BioAssay AID188 (DTP/NCI, 2004).
Shown are survivors of the treated group in tumour-free mice. Counts of survivors are from the toxicity check (mostly the fifth day) where no day follows; animals may have died later. Schedules are NCI's codes, taken here to give the interval after Q, in days (D) or hours (H), and the number of doses after X. Some doses were run more than once; the results are listed from low to high.

Tested on: CD2F1 mice, nontumored, toxicity/survival
Assay: NCI In Vivo Anticancer Drug Screen. Data for tumor model Nontumored Animals (Toxicity Test) in CD2F1 (CDF1) mice

Row | SMILES | survivor count (dose: 0.63 mg/kg/injection, schedule: Q01DX009 (ip), vehicle: saline) | survivor count (dose: 2.5 mg/kg/injection, schedule: Q01DX009 (ip), vehicle: saline) | survivor count (dose: 10.0 mg/kg/injection, schedule: Q01DX009 (ip), vehicle: saline) | survivor count (dose: 40.0 mg/kg/injection, schedule: Q01DX009 (ip), vehicle: saline) | survivor count (dose: 1.0 mg/kg/injection, schedule: Q01DX001 (ip), vehicle: water) | survivor count (dose: 10.0 mg/kg/injection, schedule: Q01DX001 (ip), vehicle: water) | survivor count (dose: 100.0 mg/kg/injection, schedule: Q01DX001 (ip), vehicle: water)
1 | NC(Cc1cc(I)c(Oc2cc(I)c(O)c(I)c2)c(I)c1)C(=O)O (configuration not stated) | 2 of 3 and 4 of 4 | 2 of 3 and 4 of 4 | 0 of 2 and 4 of 4 | 4 of 4 | – | – | –
2 | Nc1nc(N)c(N)c(/C=C/c2ccccc2)n1 | – | – | – | – | 2 of 2 | 0 of 2 | 0 of 2
